Results: patent US20230365617A1, “SAPONIN DERIVATIVES FOR USE IN MEDICINE” (priority 2020, published 2023)

System: EGFR expressing cells (HeLa)
Assay type: cell-based, human
Conditions: red blood cells vs HeLa cells (Table A5)

Structure (SMILES)	Ratio: IC50 hemolysis / IC50 activity
CC(=O)OC1C(C)OC(OC2C(C)OC(OC(=O)[C@]34CCC(C)(C)CC3C3=CCC5[C@@]6(C)CC[C@H](OC7OC(C(=O)NCCN8C(=O)C=CC8=O)C(O)C(OC8OCC(O)C(O)C8O)C7OC7OC(CO)C(O)C(O)C7O)[C@@](C)(CO)C6CC[C@@]5(C)[C@]3(C)C[C@H]4O)C(OC3OC(C)C(OC4OCC(O)C(OC5OC(CO)C(O)C(O)C5O)C4O)C(O)C3O)C2O)C(O)C1OC1OCC(O)C(O)C1O (some centres unmarked) [SO1861-(Glu-AEM)-(Ald-OH)]	>25
CC(=O)OC1C(C)OC(OC2C(C)OC(OC(=O)[C@]34CCC(C)(C)CC3C3=CCC5[C@@]6(C)CC[C@H](OC7OC(C(=O)O)C(O)C(OC8OCC(O)C(O)C8O)C7OC7OC(CO)C(O)C(O)C7O)[C@@](C)(CO)C6CC[C@@]5(C)[C@]3(C)C[C@H]4O)C(OC3OC(C)C(OC4OCC(O)C(OC5OC(CO)C(O)C(O)C5O)C4O)C(O)C3O)C2O)C(O)C1OC1OCC(O)C(O)C1O (some centres unmarked) [SO1861-Ald-OH]	88
